# Source: PubChem BioAssay AID445 (National Center for Advancing Translational Sciences (NCATS), 2006)
# This is one part of the list. Shown are side measurements of this screen, not its main read-out; they come without a call. The list favours compounds with an active or inconclusive main result. Words in brackets tell the shape of the fitted curve; partial curves, single points and poor fits give uncertain potencies.
# Test: IkB Signaling
# Conditions: ABC-DLBCL IkBa-CBG/CBR dual luciferase ratio (green luciferase fused to IkBa over red control in OCI-Ly3 lymphoma cells), 4 h
# How it was run: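 Luminescence ratio of IκBα-fused green versus native red beetle luciferase in OCI-Ly3 cells, 4 h post-doxycycline with compound; red signal alone, scaled from basal (0%) to zero light (-100%), flagged nonspecific or cytotoxic effects.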
# [1] = measured here: control luc red channel unless noted
# [2] = measured here: IkB-luc green channel
# [3] = measured here: control luc red channel
smiles,measurement,setting,value
CCn1c(=O)cc(OCC(=O)Nc2ccc(C)cn2)c2ccccc21,AC50,[1],"7.94 µM [falling, full curve, poor fit]"
CC(C)c1ccccc1NC(=O)CSc1nnc(COc2ccccc2)o1,AC50,[1],"15.8 µM [falling, partial curve]"
O=C(Nc1ccc(Cl)c(Cl)c1)c1cc(S(=O)(=O)N2CCN(c3cccc(Cl)c3)CC2)ccc1F,AC50,[1],"12.6 µM [falling, partial curve]"
O=C(NCCCCc1ccccc1)c1nn(-c2ccccc2F)nc1CO,AC50,[1],"25.1 µM [falling, partial curve]"
CC(C)OCCCn1c(SCC(N)=O)nc2c(sc3ccccc32)c1=O,AC50,[1],"3.98 µM [rising, single point]"
O=C(c1ccc(CS(=O)c2ccccc2Cl)o1)N1CCN(c2cccc(C(F)(F)F)c2)CC1 (centres undefined),AC50,[1],"25.1 µM [falling, single point]"
Cc1ccc(-c2nc3cnccn3c2Nc2ccccc2)o1,AC50,[2],"6.31 µM [rising, single point]"
same,AC50,[3],"39.8 µM [falling, single point]"
O=C(Nc1ccccc1)Nc1cccc2cccnc12,AC50,[1],"20 µM [falling, partial curve]"
c1ccc(OCc2nc(-c3ccccc3)no2)cc1,AC50,[1],"20 µM [falling, single point]"
CCCOc1ccc(C(=O)NCC(c2ccc(OC)cc2)N2CCCCC2)cc1 (centres undefined),AC50,[1],"39.8 µM [falling, single point]"
COc1ccc(Cn2ccn(CC(=O)Nc3cc(C)ccc3C)c(=O)c2=O)cc1,AC50,[1],"20 µM [falling, single point]"
C=CCn1c(N)c(C(=O)NCC2CCCO2)c2nc3ccccc3nc21 (centres undefined),AC50,[1],"10 µM [falling, partial curve]"
Cc1ccc(NC(=O)Cn2c(=O)ccc3cc(S(=O)(=O)N4CCCC4)ccc32)cc1C,AC50,[1],"7.94 µM [falling, full curve, poor fit]"
O=C(Nc1nc2cc3c(cc2s1)OCCO3)c1cccc(S(=O)(=O)N2CCOCC2)c1,AC50,[1],"15.8 µM [falling, partial curve]"
COc1cc(CN(C(=O)c2ccccc2)c2ccccn2)cc(OC)c1OC,AC50,[1],"3.16 µM [falling, partial curve]"
COc1ccc2c(c1)c(=O)c(C(=O)c1ccc(F)cc1)cn2CC(=O)Nc1ccc2c(c1)OCCO2,AC50,[1],"39.8 µM [rising, single point] [measured here: IkB-luc green channel]"
COc1ccc(-c2cn3cccnc3n2)cc1NC(=O)c1ccccc1C(F)(F)F,AC50,[1],"7.94 µM [rising, partial curve]"
COc1ccccc1N(CCC#N)C(=O)CSc1nc(-c2ccccc2)cn1N,AC50,[1],"31.6 µM [falling, single point]"
O=C1CC(N(O)c2ccccc2)C(=O)N1c1cc(Cl)cc(Cl)c1 (centres undefined),AC50,[1],"0.398 µM [falling, full curve, poor fit]"
CCOC(=O)CSc1nnc(-c2ccc(OC)cc2)o1,AC50,[1],"39.8 µM [falling, single point]"
Cc1cn2c(=O)cc(COC(=O)COc3ccc(C)c(C)c3)nc2s1,AC50,[1],"0.0794 µM [rising, full curve, poor fit]"
CCCOc1ccc(C(=O)N(Cc2ccc(Cl)cc2)Cc2ccco2)cc1,AC50,[1],"31.6 µM [falling, single point]"
Cc1ccc(CNC(=O)c2ccc3c(c2)NC(=O)C(CS(=O)(=O)Cc2cccc(C)c2)N3)cc1 (centres undefined),AC50,[1],"25.1 µM [falling, single point]"
COc1ccc(CCNC(=O)c2cc(-c3ccccc3O)n[nH]2)cc1OC,AC50,[1],"5.01 µM [falling, partial curve]"
Cc1cccc(N(C)S(=O)(=O)c2nnc(NC(=O)C(C)(C)C)s2)c1,AC50,[1],"15.8 µM [falling, partial curve]"
O=C(c1ccc2c(c1)N(Cc1ccccc1F)C(=O)c1ccccc1S2=O)N1CCC(Cc2ccccc2)CC1 (centres undefined),AC50,[1],"6.31 µM [falling, partial curve]"
COc1ccc(NC(=O)C2CCCN(S(=O)(=O)c3cccc4cccnc34)C2)cc1 (centres undefined),AC50,[1],"15.8 µM [falling, partial curve]"
CCOC(=O)c1cc(-c2ccc(F)cc2)n(CCC(=O)Nc2nc3cc(C)c(C)cc3s2)c1C,AC50,[1],"2.51 µM [falling, full curve]"
CCOc1ccc(-n2c(-c3ccc(Br)cc3)cc3c2CC(C)(C)CC3=O)cc1,AC50,[1],"39.8 µM [falling, partial curve]"
COc1ccc(OCc2ccc(-c3nc(C#N)c(NCc4ccc(F)cc4)o3)o2)cc1,AC50,[1],"1.26 µM [falling, partial curve]"
O=C(CN1CCN(c2nc(-c3ccc(F)cc3)cs2)CC1)NCc1ccc2c(c1)OCO2,AC50,[1],"12.6 µM [falling, partial curve]"
OCCN1CCN(c2ncnc3c2cnn3-c2cccc(Cl)c2)CC1,AC50,[1],"39.8 µM [falling, single point]"
Cc1ccc(CNC(=O)C2CCCN(c3nc4ccccc4n4cccc34)C2)cc1 (centres undefined),AC50,[1],"12.6 µM [falling, partial curve]"
COc1ccc(C(C)NC(=O)CN(c2cc(OC)ccc2OC)S(=O)(=O)c2ccccc2)cc1 (centres undefined),AC50,[1],"25.1 µM [falling, partial curve]"
Brc1cccc(-c2nn(-c3ccccc3)c3c2cnc2cc4c(cc23)OCO4)c1,AC50,[1],"25.1 µM [falling, single point]"
CCc1cccc(C)c1NC(=O)C1CCN(S(=O)(=O)c2cc(Br)cc3c2N(C(C)=O)CC3)CC1,AC50,[1],"25.1 µM [rising, single point]"
O=C(c1cccs1)N1CCCc2cc(NS(=O)(=O)c3ccc(Br)cc3)ccc21,AC50,[1],"20 µM [falling, partial curve]"
COc1cccc(-n2ccnc2SCC(=O)Nc2cccc3ccccc23)c1,AC50,[1],"0.158 µM [rising, full curve, poor fit]"
COc1ccc(-n2c(CC3C(=O)Nc4ccc(C)cc43)nc3ccccc3c2=O)cc1 (centres undefined),AC50,[1],"25.1 µM [falling, single point]"
O=C(NCc1ccccc1Cl)c1ccc2c(c1)ncn2-c1cccc(F)c1,AC50,[1],"39.8 µM [falling, single point]"
CCc1ccc(C2c3c(-c4cc(C)ccc4O)n[nH]c3C(=O)N2CCO)cc1 (centres undefined),AC50,[1],"15.8 µM [falling, single point]"
Cn1c(SCC(=O)N2CCOCC2)ncc(C(=O)Nc2ccc(F)cc2)c1=O,AC50,[2],"39.8 µM [rising, single point]"
same,AC50,[3],"6.31 µM [falling, single point]"
COc1ccc(NC(=O)CCCS(=O)(=O)c2nc(-c3ccccc3OC)cc(C(F)(F)F)n2)c(OC)c1,AC50,[1],"7.94 µM [falling, partial curve]"
Cn1c(C(=O)NCc2ccccc2Cl)cc2sc(Cl)cc21,AC50,[1],"31.6 µM [falling, single point]"
COc1cccc(CNC(=O)CN(c2cc(C)cc(C)c2)S(=O)(=O)c2c(C)noc2C)c1,AC50,[1],"12.6 µM [falling, partial curve]"
COc1ccc(-c2csc3ncnc(Nc4ccc(OC)cc4OC)c23)cc1,AC50,[1],"31.6 µM [falling, partial curve]"
CCc1cccc(NC(=O)Cn2c(=O)n(CC3CCC(C(=O)NC)CC3)c(=O)c3sccc32)c1 (centres undefined),AC50,[1],"3.98 µM [falling, full curve, poor fit]"
O=C(Cc1cccs1)Nc1ccccc1C(=O)O,AC50,[1],"15.8 µM [falling, partial curve]"
COc1cccc(CNC(=O)Cn2c(=O)cc(C)c3c(C)nn(C)c32)c1OC,AC50,[1],"39.8 µM [falling, single point]"
O=C(NC1CCCCC1)c1ccc2c(c1)N(Cc1ccc(F)cc1)C(=O)c1ccccc1S2(=O)=O,AC50,[1],"10 µM [falling, partial curve, poor fit]"
N#CC1=C(N)N(c2ccc(Cl)cc2)C2=C(C(=O)CCC2)C1c1cc(CN2CCOCC2)cs1 (centres undefined),AC50,[1],"10 µM [falling, partial curve]"
Cc1cccc(N(C)C(=O)C2CCC(CNS(=O)(=O)c3cccc4nsnc34)CC2)c1 (centres undefined),AC50,[1],"20 µM [falling, single point]"
c1ccc2[nH]c(CN3CCCCCC3)nc2c1,AC50,[1],"31.6 µM [falling, single point]"
O=c1c2c3c(sc2nnn1CCCCOc1ccc(Cl)cc1)CCCC3,AC50,[1],"15.8 µM [falling, single point]"
Cc1ccccc1CNc1nc(N)n(-c2ccccc2)n1,AC50,[1],"7.94 µM [falling, partial curve]"
COC(=O)c1ccc(CSc2nc3ccccc3c(=O)n2Cc2ccco2)o1,AC50,[1],"25.1 µM [falling, partial curve]"
N#C/C(=C/c1ccc(O)cc1)c1nc(-c2ccc(-c3ccccc3)cc2)cs1,AC50,[1],"6.31 µM [falling, partial curve]"
O=C(CCCc1nc(-c2ccc(Cl)cc2)no1)NCc1ccco1,AC50,[1],"10 µM [falling, partial curve]"
CCN(CC)c1cc(NC2CCCCC2)c2c3c(onc13)-c1ccccc1C2=O,AC50,[1],"3.98 µM [falling, single point]"
Cc1ccccc1CN1C(=O)C(O)(c2c[nH]c3ccccc23)c2cc(Cl)ccc21 (centres undefined),AC50,[1],"25.1 µM [falling, partial curve]"
O=C(c1ccc2c(c1)N(Cc1ccccc1)C(=O)c1ccccc1S2(=O)=O)N1CCC(Cc2ccccc2)CC1,AC50,[1],"10 µM [falling, partial curve]"
CCCCN1C(C(=O)c2ccccc2)=C(OC(=O)CC)c2ccccc2S1(=O)=O,AC50,[1],"3.98 µM [falling, full curve]"

# Part of the list above, with bars between the fields.
smiles | measurement | setting | value
CCOC(=O)c1cc(-c2ccc(F)cc2)n(CCC(=O)Nc2nc3cc(C)c(C)cc3s2)c1C | AC50 | [1] | 2.51 µM [falling, full curve]
CCOc1ccc(-n2c(-c3ccc(Br)cc3)cc3c2CC(C)(C)CC3=O)cc1 | AC50 | [1] | 39.8 µM [falling, partial curve]
COc1ccc(OCc2ccc(-c3nc(C#N)c(NCc4ccc(F)cc4)o3)o2)cc1 | AC50 | [1] | 1.26 µM [falling, partial curve]
O=C(CN1CCN(c2nc(-c3ccc(F)cc3)cs2)CC1)NCc1ccc2c(c1)OCO2 | AC50 | [1] | 12.6 µM [falling, partial curve]
